Results taken from the supplement of paper PMC12067093, “Discovery and optimisation of a covalent ligand for TRIM25 and its application to targeted protein ubiquitination” (Chemical Science, 2025).
Some of the results follow.

The chains behind the UniProt entries cited, without tags or fusion partners. Where a name states a change or a piece, a line headed by the entry shows the natural chain unless it says otherwise.
UniProt Q8NBS9: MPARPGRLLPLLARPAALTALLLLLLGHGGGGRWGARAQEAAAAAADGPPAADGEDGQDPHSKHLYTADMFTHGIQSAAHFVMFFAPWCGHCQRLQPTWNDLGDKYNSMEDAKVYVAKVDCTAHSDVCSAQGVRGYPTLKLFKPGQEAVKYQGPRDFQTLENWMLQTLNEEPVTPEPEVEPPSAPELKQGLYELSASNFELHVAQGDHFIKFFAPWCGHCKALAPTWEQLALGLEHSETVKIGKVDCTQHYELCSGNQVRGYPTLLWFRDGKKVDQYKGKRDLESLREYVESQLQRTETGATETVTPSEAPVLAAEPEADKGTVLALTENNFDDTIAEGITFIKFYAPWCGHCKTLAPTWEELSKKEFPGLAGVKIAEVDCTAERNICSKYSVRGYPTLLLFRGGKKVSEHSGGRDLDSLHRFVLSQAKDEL
UniProt P10155: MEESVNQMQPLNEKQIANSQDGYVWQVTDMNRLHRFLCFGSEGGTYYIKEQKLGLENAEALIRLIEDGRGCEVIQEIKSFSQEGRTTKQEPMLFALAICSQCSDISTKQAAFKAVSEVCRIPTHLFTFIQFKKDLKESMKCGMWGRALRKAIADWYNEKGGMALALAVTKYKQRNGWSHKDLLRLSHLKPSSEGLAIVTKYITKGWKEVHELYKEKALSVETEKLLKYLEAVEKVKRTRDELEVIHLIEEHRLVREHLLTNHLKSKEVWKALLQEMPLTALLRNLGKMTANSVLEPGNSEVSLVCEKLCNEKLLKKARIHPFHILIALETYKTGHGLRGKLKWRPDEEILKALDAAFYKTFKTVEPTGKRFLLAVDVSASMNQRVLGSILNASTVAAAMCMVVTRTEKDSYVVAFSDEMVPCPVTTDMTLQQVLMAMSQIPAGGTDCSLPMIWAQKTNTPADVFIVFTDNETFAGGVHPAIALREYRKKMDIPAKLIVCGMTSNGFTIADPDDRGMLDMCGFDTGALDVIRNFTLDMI
UniProt Q9ULT0: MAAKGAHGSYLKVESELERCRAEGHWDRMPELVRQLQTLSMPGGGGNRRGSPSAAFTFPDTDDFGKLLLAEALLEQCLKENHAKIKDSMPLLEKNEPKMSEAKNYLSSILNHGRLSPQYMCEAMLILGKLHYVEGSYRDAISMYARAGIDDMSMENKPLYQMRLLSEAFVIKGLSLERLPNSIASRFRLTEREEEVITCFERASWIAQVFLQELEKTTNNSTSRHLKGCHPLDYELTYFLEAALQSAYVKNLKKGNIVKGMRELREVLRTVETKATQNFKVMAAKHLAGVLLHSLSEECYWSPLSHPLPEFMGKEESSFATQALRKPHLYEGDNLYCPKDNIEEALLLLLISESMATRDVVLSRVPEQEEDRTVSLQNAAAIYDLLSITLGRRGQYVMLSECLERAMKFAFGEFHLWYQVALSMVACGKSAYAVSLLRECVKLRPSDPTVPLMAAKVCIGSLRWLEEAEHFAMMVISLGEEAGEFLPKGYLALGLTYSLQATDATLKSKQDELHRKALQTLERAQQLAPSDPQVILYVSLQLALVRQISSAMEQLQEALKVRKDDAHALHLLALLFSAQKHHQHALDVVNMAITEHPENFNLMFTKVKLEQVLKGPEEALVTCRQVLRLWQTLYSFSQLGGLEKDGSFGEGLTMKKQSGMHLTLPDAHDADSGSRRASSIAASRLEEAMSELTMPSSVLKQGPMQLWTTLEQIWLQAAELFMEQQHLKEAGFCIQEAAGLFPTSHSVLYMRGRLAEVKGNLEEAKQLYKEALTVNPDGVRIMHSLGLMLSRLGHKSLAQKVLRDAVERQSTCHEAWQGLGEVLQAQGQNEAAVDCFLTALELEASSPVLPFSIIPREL
UniProt Q9UNY4: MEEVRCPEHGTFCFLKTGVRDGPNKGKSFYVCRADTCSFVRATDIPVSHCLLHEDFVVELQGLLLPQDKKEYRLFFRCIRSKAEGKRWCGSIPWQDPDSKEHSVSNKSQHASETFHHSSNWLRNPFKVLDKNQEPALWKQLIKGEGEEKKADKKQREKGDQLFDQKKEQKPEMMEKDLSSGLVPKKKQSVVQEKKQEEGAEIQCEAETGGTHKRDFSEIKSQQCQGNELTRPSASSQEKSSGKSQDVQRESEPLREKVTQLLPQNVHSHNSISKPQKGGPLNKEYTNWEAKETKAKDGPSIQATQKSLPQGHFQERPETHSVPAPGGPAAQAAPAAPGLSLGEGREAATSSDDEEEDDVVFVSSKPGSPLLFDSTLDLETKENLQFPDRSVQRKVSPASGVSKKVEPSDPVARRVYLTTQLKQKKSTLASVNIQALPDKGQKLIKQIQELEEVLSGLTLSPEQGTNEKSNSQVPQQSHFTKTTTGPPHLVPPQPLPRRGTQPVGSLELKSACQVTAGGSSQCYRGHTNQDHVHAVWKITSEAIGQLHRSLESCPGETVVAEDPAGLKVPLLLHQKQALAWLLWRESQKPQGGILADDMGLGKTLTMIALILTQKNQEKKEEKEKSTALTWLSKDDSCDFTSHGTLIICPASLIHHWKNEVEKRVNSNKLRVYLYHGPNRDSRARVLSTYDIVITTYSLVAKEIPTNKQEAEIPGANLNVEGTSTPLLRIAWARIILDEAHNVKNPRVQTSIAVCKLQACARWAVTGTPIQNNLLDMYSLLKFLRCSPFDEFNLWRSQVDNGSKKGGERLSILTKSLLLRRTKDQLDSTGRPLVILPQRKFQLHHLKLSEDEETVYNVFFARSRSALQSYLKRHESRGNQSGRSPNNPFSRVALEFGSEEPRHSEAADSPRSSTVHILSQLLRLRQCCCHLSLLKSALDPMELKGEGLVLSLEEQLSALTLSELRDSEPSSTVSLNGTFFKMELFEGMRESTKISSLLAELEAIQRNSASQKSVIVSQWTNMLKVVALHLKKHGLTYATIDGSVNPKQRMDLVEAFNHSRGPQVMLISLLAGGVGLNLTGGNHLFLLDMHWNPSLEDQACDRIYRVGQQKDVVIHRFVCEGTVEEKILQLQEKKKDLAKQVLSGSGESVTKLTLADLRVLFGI
UniProt Q9BSJ2, whole entry, looked up: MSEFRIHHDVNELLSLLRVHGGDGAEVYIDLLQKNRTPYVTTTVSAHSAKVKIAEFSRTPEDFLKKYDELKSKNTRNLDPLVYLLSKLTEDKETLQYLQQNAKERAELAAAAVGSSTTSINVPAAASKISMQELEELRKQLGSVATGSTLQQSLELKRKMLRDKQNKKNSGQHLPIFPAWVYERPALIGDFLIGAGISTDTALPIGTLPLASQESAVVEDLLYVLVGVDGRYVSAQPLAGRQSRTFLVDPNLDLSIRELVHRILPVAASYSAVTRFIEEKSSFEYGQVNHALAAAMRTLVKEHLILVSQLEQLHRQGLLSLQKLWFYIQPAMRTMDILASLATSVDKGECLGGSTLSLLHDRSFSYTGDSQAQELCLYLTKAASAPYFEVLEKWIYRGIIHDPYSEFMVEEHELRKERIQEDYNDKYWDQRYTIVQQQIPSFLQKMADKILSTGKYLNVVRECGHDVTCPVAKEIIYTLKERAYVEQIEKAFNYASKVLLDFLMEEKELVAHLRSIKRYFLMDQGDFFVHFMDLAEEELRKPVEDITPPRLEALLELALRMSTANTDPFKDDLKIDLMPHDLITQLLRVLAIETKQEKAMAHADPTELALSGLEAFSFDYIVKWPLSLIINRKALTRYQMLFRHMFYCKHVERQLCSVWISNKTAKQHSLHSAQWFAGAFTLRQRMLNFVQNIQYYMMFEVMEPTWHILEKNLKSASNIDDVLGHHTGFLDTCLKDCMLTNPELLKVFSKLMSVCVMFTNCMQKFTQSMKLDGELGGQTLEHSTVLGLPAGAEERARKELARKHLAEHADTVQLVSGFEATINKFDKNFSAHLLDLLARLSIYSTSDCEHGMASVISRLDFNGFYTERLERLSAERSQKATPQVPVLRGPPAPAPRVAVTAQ
UniProt Q6NXR4: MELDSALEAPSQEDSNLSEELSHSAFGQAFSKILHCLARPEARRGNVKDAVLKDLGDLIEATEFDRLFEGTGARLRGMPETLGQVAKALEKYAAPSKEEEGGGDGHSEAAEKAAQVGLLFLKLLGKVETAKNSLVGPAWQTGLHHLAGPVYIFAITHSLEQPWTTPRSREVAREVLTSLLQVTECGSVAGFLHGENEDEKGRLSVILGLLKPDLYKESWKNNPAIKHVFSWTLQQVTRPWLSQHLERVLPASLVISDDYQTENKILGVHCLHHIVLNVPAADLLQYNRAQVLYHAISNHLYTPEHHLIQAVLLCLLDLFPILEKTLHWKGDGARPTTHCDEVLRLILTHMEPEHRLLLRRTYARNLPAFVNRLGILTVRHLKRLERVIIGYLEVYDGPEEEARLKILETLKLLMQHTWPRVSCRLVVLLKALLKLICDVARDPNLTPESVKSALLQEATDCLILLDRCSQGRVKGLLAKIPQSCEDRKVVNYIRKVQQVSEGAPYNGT
UniProt Q99614: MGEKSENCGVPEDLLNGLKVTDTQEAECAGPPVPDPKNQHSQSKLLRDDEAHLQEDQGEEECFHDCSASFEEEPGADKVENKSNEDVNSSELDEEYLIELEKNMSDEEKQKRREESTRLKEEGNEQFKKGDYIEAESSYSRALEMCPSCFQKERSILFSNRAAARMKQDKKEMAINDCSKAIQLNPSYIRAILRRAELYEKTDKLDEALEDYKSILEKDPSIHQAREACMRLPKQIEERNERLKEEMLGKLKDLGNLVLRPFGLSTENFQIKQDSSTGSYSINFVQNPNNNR
UniProt P49815: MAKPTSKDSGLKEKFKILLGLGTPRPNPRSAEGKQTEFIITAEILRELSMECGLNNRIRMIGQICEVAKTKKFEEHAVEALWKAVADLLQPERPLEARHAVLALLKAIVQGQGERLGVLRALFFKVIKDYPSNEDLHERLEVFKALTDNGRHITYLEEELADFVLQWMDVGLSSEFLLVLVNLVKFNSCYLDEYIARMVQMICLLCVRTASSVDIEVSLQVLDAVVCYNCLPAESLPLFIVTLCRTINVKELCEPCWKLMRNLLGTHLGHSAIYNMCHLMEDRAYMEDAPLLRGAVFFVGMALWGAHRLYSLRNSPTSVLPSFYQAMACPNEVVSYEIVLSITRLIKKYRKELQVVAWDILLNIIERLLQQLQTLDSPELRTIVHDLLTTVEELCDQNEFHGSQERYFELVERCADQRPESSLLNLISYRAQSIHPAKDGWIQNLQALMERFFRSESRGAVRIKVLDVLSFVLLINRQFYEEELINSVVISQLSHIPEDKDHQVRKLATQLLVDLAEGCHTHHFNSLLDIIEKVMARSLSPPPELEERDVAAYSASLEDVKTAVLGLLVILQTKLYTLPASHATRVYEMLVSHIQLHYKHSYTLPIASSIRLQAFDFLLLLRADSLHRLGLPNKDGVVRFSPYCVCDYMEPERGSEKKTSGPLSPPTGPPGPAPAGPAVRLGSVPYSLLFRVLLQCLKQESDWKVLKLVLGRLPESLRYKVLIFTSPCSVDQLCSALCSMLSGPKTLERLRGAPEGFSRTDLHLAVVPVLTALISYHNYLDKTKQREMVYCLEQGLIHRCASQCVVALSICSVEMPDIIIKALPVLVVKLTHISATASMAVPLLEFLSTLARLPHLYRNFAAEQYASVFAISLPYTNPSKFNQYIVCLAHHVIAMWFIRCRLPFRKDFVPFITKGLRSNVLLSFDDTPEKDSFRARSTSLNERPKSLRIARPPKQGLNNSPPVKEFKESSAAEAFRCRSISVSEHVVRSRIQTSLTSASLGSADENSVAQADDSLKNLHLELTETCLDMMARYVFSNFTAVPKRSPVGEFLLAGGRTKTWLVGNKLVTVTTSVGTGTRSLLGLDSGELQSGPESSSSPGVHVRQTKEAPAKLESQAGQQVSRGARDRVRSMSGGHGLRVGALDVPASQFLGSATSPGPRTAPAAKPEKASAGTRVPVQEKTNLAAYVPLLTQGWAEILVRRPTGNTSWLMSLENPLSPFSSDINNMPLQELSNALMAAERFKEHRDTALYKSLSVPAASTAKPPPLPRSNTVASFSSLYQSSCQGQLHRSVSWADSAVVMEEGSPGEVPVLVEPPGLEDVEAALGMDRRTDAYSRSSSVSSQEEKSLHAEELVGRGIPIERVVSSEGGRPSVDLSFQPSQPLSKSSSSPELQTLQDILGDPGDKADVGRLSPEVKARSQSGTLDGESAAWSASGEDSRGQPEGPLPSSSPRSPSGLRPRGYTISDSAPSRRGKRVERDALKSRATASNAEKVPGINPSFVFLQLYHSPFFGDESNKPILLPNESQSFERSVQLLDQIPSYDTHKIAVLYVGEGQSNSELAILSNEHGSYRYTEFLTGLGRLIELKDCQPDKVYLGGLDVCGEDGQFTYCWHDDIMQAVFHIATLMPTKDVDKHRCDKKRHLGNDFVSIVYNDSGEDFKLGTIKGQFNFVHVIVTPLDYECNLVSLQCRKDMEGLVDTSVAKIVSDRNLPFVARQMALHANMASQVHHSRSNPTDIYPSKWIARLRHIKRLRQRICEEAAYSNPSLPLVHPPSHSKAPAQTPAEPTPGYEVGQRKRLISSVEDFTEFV

Compound: Cc1cc(ccc1-c1ccccc1)C(=O)N1CCCN(CC1)C(=O)CCl [compound 10]
Experiment: probe-labelled cysteine peptide fold change vs DMSO (competition) (log2 fold change); higher = less target engagement (more negative = stronger competition)
Settings: THP-1, incubation time: 4 h
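Note: competitive profiling in live THP-1 cells: cysteine peptides tagged with an iodoacetamide desthiobiotin (IA-DTB) probe, intensity after compound treatment relative to DMSO-treated cells.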

Target | probe-labelled cysteine peptide fold change (10 µM) | probe-labelled cysteine peptide fold change (50 µM)
TTC39C_Q8N584_97_LCESEEAGVIETIK (UniProt Q8N584) | -0.142 | 0.0415
TXNDC5_Q8NBS9_254_VDCTQHYELCSGNQVR (UniProt Q8NBS9) | -0.0339 | 0.0451
TUBGCP6_Q96RT7_640_DCAVYVGR (UniProt Q96RT7) | 0.137 | 0.0858
TSC22D4_Q9Y3Q8_92_WTCVDVYERDLEPHSFGGLLEGIR (UniProt Q9Y3Q8) | 0.0479 | -0.212
TUT4_Q5TAX3_825_KQDDLAPSETCLK (UniProt Q5TAX3) | -0.195 | -0.0583
TROVE2_P10155_102_QEPMLFALAICSQCSDISTK (UniProt P10155) | -0.00159 | -0.0701
TUBA1B_P68363_347_RSIQFVDWCPTGFK (UniProt P68363) | 0.0304 | -0.0451
TTC27_Q6P3X3_299_EGDVLSNCEFTPAPTPQEHLTK (UniProt Q6P3X3) | -0.418 | -0.376
TROVE2_P10155_305_MTANSVLEPGNSEVSLVCEK (UniProt P10155) | -0.205 | -0.161
TTC7A_Q9ULT0_733_EAGFCIQEAAGLFPTSHSVLYMR (UniProt Q9ULT0) | 0.14 | 0.488
TTC27_Q6P3X3_743_CDTQSNCWEK (UniProt Q6P3X3) | -0.181 | -0.602
TTC4_O95801_174_HFAEAVNWCDEGLQIDAK (UniProt O95801) | 0.192 | -0.125
TSR2_Q969E8_114_EMASCITQR (UniProt Q969E8) | -0.531 | -0.527
TTC5_Q8N0Z6_29_DCYFETHSVEDAGR (UniProt Q8N0Z6) | 0.126 | -0.0526
TTF2_Q9UNY4_13_CPEHGTFCFLK (UniProt Q9UNY4) | 0.253 | -0.144
TST_Q16762_64_HVPGASFFDIEECRDTASPYEMMLPSEAGFAEYVGR (UniProt Q16762) | -0.142 | -0.425
TTC37_Q6PGP7_1162_CLLTSAIYALQGR (UniProt Q6PGP7) | -0.0497 | -0.11
TXNDC5_Q8NBS9_247+254_VDCTQHYELCSGNQVR (UniProt Q8NBS9) | -0.39 | -0.44
TUT4_Q5TAX3_204_CALQNSPR (UniProt Q5TAX3) | -0.476 | -0.222
TUT7_Q5VYS8_417_VSAGNENACLTTK (UniProt Q5VYS8) | 0.162 | 0.00824
TTLL12_Q14166_563+572_AFTELFQVACAKPPPLGLCDYPSSR (UniProt Q14166) | 0.109 | 0.217

Whole records as entered above:
TROVE2_P10155_102_QEPMLFALAICSQCSDISTK (UniProt P10155) reads probe-labelled cysteine peptide fold change (10 µM) = -0.00159; probe-labelled cysteine peptide fold change (50 µM) = -0.0701
TXNDC5_Q8NBS9_247+254_VDCTQHYELCSGNQVR (UniProt Q8NBS9) reads probe-labelled cysteine peptide fold change (10 µM) = -0.39; probe-labelled cysteine peptide fold change (50 µM) = -0.44
TTC7A_Q9ULT0_733_EAGFCIQEAAGLFPTSHSVLYMR (UniProt Q9ULT0) reads probe-labelled cysteine peptide fold change (10 µM) = 0.14; probe-labelled cysteine peptide fold change (50 µM) = 0.488
TTF2_Q9UNY4_13_CPEHGTFCFLK (UniProt Q9UNY4) reads probe-labelled cysteine peptide fold change (10 µM) = 0.253; probe-labelled cysteine peptide fold change (50 µM) = -0.144

(next part)

Target | probe-labelled cysteine peptide fold change (10 µM) | probe-labelled cysteine peptide fold change (50 µM)
TUBGCP2_Q9BSJ2_656_QLCSVWISNK (UniProt Q9BSJ2) | 0.232 | 0.238
TUBGCP4_Q9UGJ1_162_HSCGGLPPVR (UniProt Q9UGJ1) | 0.21 | 0.0244
TWSG1_Q9GZX9_208_WFHNACCECIGPECIDYGSK (UniProt Q9GZX9) | -0.0707 | 0.0707
TRMT6_Q9UJA5_243_AATACFGFPK (UniProt Q9UJA5) | -0.0351 | -0.16
TUT4_Q5TAX3_20_KNVICEESK (UniProt Q5TAX3) | -0.253 | -0.439
TXNDC9_O14530_94_ESENVVCHFYR (UniProt O14530) | -0.0612 | -0.0184
TSPYL1_Q9H0U9_375_NQDLICSFFTWFSDHSLPESDK (UniProt Q9H0U9) | 0.781 | 1.06
TTI2_Q6NXR4_185_EVLTSLLQVTECGSVAGFLHGENEDEK (UniProt Q6NXR4) | -0.179 | 0.0887
TTI2_Q6NXR4_461_SALLQEATDCLILLDR (UniProt Q6NXR4) | 0.0942 | -0.0555
TRRAP_Q9Y4A5_429_LLLNLVDCIR (UniProt Q9Y4A5) | 0.0954 | 0.0803
TUBGCP2_Q9BSJ2_848_LSIYSTSDCEHGMASVISR (UniProt Q9BSJ2) | -0.0533 | -0.128
TTC28_Q96AY4_726_ALGNLGDIFICK (UniProt Q96AY4) | 0.263 | -0.0137
TXNDC5_Q8NBS9_217_FFAPWCGHCK (UniProt Q8NBS9) | -0.617 | -0.661
TRPM4_Q8TD43_759_QSGRPGCCGGR (UniProt Q8TD43) | -0.788 | -2.09
TTLL12_Q14166_370_DCLASIAR (UniProt Q14166) | -0.0521 | -0.113
TTC37_Q6PGP7_675_GLGECHLMMAK (UniProt Q6PGP7) | 0.0644 | -0.241
TSNAX_Q99598_257_VENACYALK (UniProt Q99598) | -0.0234 | -0.0416
TXNDC17_Q9BRA2_64_HISEGCVFIYCQVGEK (UniProt Q9BRA2) | 0.0209 | 0.13
TTC17_Q96AE7_412_EAQLGNHQICR (UniProt Q96AE7) | 0.172 | 0.378
TXNDC5_Q8NBS9_381_IAEVDCTAER (UniProt Q8NBS9) | -0.374 | -0.275
TXNDC5_Q8NBS9_353_FYAPWCGHCK (UniProt Q8NBS9) | -0.372 | -1.61

Target | probe-labelled cysteine peptide fold change (10 µM) | probe-labelled cysteine peptide fold change (50 µM)
TTLL12_Q14166_612_VMQPQILEVNFNPDCER (UniProt Q14166) | 0.107 | 0.385
TSPYL5_Q86VY4_85_LPLDCGLALR (UniProt Q86VY4) | -0.317 | -0.414
TTC37_Q6PGP7_705_ALEYFTCALQHR (UniProt Q6PGP7) | -0.0778 | -0.0891
TRRAP_Q9Y4A5_1315_HQPANAQIGLMEGNTFCTTLQPR (UniProt Q9Y4A5) | -0.0509 | 0.406
TTC1_Q99614_28_VTDTQEAECAGPPVPDPKNQHSQSK (UniProt Q99614) | -0.121 | -0.23
TRPM7_Q96QT4_1411_FFVSTPSQPSCK (UniProt Q96QT4) | -0.337 | -0.544
TXN2_Q99757_93_VVNSETPVVVDFHAQWCGPCK (UniProt Q99757) | -1.34 | -1.7
TTF2_Q9UNY4_754_VQTSIAVCK (UniProt Q9UNY4) | -0.0345 | -0.157
TUBB6_Q9BUF5_12_EIVHIQAGQCGNQIGTK (UniProt Q9BUF5) | -0.186 | -0.288
TROVE2_P10155_520_GMLDMCGFDTGALDVIR (UniProt P10155) | -0.0108 | -0.124
TTC21B_Q7Z4L5_914_EALVHCETDNK (UniProt Q7Z4L5) | -0.107 | -0.122
TTC37_Q6PGP7_329_EAVLSCSQALK (UniProt Q6PGP7) | -0.137 | -0.117
TTC27_Q6P3X3_514_ETPSLYCLLGDVLGDHSCYDK (UniProt Q6P3X3) | -0.41 | -0.676
TUBGCP2_Q9BSJ2_350_TMDILASLATSVDKGECLGGSTLSLLHDR (UniProt Q9BSJ2) | -0.0286 | -0.273
TRNAU1AP_Q9NX07_48_LTGIPAGYCFVEFADLATAEK (UniProt Q9NX07) | 0.219 | 0.558
TTC28_Q96AY4_816_CYEEQLDLGQK (UniProt Q96AY4) | 0.248 | 0.196
TROVE2_P10155_71_GCEVIQEIK (UniProt P10155) | -0.263 | -0.0556
TSC2_P49815_519_LATQLLVDLAEGCHTHHFNSLLDIIEK (UniProt P49815) | 0.241 | -0.119
TSC2_P49815_414_CADQRPESSLLNLISYR (UniProt P49815) | -0.151 | -0.184
TTC1_Q99614_28_VTDTQEAECAGPPVPDPK (UniProt Q99614) | -0.117 | -0.167
TSPO_P30536_19_APPWVPAMGFTLAPSLGCFVGSR (UniProt P30536) | -0.0462 | -0.132

Target | probe-labelled cysteine peptide fold change (10 µM) | probe-labelled cysteine peptide fold change (50 µM)
TTC1_Q99614_178_EMAINDCSK (UniProt Q99614) | 0.303 | -0.13
TTF2_Q9UNY4_204_KQEEGAEIQCEAETGGTHK (UniProt Q9UNY4) | -0.381 | 0.049
TSR1_Q2NL82_618_EELIFHCGFR (UniProt Q2NL82) | 0.229 | 0.23
TTC37_Q6PGP7_1349_ISEAETLCTK (UniProt Q6PGP7) | -0.0846 | -0.0793
TTC37_Q6PGP7_497_VFCYLGHYYR (UniProt Q6PGP7) | 0.0718 | 0.189
TUT4_Q5TAX3_64_QNDICIEK (UniProt Q5TAX3) | -0.543 | -0.0828
TTC39C_Q8N584_475_MSQACHEVDDSSVVGLK (UniProt Q8N584) | -0.0327 | -0.0908
TTC1_Q99614_149_ALEMCPSCFQK (UniProt Q99614) | 0.285 | -0.0752
TSC2_P49815_1687_GQFNFVHVIVTPLDYECNLVSLQCR (UniProt P49815) | 0.0766 | 0.114
TTLL12_Q14166_361_KLSQERPGVLLNQFPCENLLTVK (UniProt Q14166) | -0.0848 | -0.518
TTI1_O43156_185+187_CLQVLLLQCDCQDHPR (UniProt O43156) | 0.296 | -0.0229
TRPM2_O94759_72_ECVYFVESSK (UniProt O94759) | -0.0415 | -0.249
TSEN34_Q9BSV6_262_FHAHYIAQCWAPEDTIPLQDLVAAGR (UniProt Q9BSV6) | -0.132 | 0.164
TRNT1_Q96Q11_373_YQGEHCLLK (UniProt Q96Q11) | -0.39 | -1.54
TTC27_Q6P3X3_503_ETPSLYCLLGDVLGDHSCYDK (UniProt Q6P3X3) | -0.0706 | -0.311
TTC38_Q5R3I4_128_ACELWEQILQDHPTDMLALK (UniProt Q5R3I4) | 0.154 | -0.0986
TRRAP_Q9Y4A5_1879_ACVDPACK (UniProt Q9Y4A5) | -0.0235 | 0.0187
TUBGCP2_Q9BSJ2_469_ECGHDVTCPVAK (UniProt Q9BSJ2) | -0.0991 | -0.239
